## Cell number after 72 h of treatment

Source: doi:10.1371/journal.pone.0140310, primary screening data, rounded.

Every entry is a combination with FH535 at 5000 nM: Cc1cc([N+](=O)[O-])ccc1NS(=O)(=O)c1cc(Cl)ccc1Cl

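Human melanoma cell lines in 1,536-well plates were treated with a pair of drugs for 72 h, then fixed, stained and imaged. The read-out is cell count (nuclei) in % of the DMSO control; lower values mean stronger growth inhibition or killing. Concentrations were fixed for each drug; these are the higher of two levels. These are primary screening values without error estimates.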
Only some of the drugs and lines screened are listed, without regard to their results.
An entry leaves out what has no value listed here.

Second drug: Cc1nc(Nc2ncc(C(=O)Nc3c(C)cccc3Cl)s2)cc(N2CCN(CCO)CC2)n1 at 20 nM
WM3619: 67.0
COLO 800: 55.5
WM451Lu: 59.5
COLO 792: 35.4
COLO 829: 52.2
C32: 61.7

Second drug: Cc1ccc(Nc2nccc(N(C)c3ccc4c(C)n(C)nc4c3)n2)cc1S(N)(=O)=O at 2000 nM
WM3619: 82.5
COLO 800: 66.3
WM451Lu: 74.6
COLO 792: 68.5
COLO 829: 74.1
C32: 80.6

Second drug: Cn1cnc2c(F)c(Nc3ccc(Br)cc3Cl)c(C(=O)NOCCO)cc21 at 75 nM
WM3619: 56.7
COLO 800: 66.0
WM451Lu: 61.3
COLO 792: 54.5
COLO 829: 73.2
C32: 71.5

Second drug: Cc1cn(-c2cc(NC(=O)c3ccc(C)c(Nc4nccc(-c5cccnc5)n4)c3)cc(C(F)(F)F)c2)cn1 at 1000 nM
WM3619: 78.8
COLO 800: 53.9
WM451Lu: 110
COLO 792: 79.2
COLO 829: 88.7
C32: 98.4

Second drug: NC(=O)c1ccc(N(C(N)=O)c2c(F)cccc2F)nc1-c1ccc(F)cc1F at 2000 nM
WM3619: 77.5
COLO 800: 86.5
WM451Lu: 104
COLO 792: 76.7
COLO 829: 80.1
C32: 89.0

Second drug: C[As](C)SC[C@H](NC(=O)CC[C@H](N)C(=O)O)C(=O)NCC(=O)O at 2000 nM
WM3619: 73.1
COLO 800: 63.4
WM451Lu: 94.8
COLO 792: 79.6
COLO 829: 88.4
C32: 103

Second drug: N.N.[Cl][Pt][Cl] at 8000 nM
WM3619: 85.3
COLO 800: 64.7
WM451Lu: 97.1
COLO 792: 71.1
COLO 829: 89.2
C32: 84.8

Second drug: CCCS(=O)(=O)Nc1ccc(F)c(C(=O)c2c[nH]c3ncc(Cl)cc23)c1F at 400 nM
WM3619: 79.1
COLO 800: 125
WM451Lu: 86.9
COLO 792: 79.8
COLO 829: 89.2
C32: 78.8

Second drug: CC(C)C[C@H](NC(=O)[C@H](Cc1ccccc1)NC(=O)c1cnccn1)B(O)O at 5 nM
WM3619: 2.8
COLO 800: 90.7
WM451Lu: 29.8
COLO 792: 40.6
COLO 829: 14.7
C32: 39.9

Second drug: CC(=O)c1c(C)c2cnc(Nc3ccc(N4CCNCC4)cn3)nc2n(C2CCCC2)c1=O at 200 nM
WM3619: 42.8
COLO 800: 64.5
WM451Lu: 63.3
COLO 792: 36.7
COLO 829: 66.3
C32: 84.6

Second drug: Clc1ccc(Nc2nnc(Cc3ccncc3)c3ccccc23)cc1 at 10000 nM
WM3619: 55.6
COLO 800: 69.7
WM451Lu: 85.8
COLO 792: 55.7
COLO 829: 59.9
C32: 99.9

Second drug: C/C(O)=C(\C#N)C(=O)Nc1cc(Br)ccc1Br at 10000 nM
WM3619: 67.6
COLO 800: 53.3
WM451Lu: 71.4
COLO 792: 60.8
COLO 829: 76.6
C32: 87.7

Second drug: O=C(O)c1ccc(-c2c[nH]c3ncc(-c4ccccc4)cc23)cc1C1CCCC1 at 800 nM
WM3619: 68.4
COLO 800: 61.8
WM451Lu: 90.0
COLO 792: 59.3
COLO 829: 65.7
C32: 93.5

Second drug: Nc1ncn([C@H]2C[C@H](O)[C@@H](CO)O2)c(=O)n1 at 500 nM
WM3619: 88.7
COLO 800: 119
WM451Lu: 74.8
COLO 792: 54.2
COLO 829: 77.2
C32: 88.8

Second drug: CO[C@@H]1[C@H](N(C)C(=O)c2ccccc2)C[C@H]2O[C@]1(C)n1c3ccccc3c3c4c(c5c6ccccc6n2c5c31)C(=O)NC4 at 400 nM
WM3619: 46.2
COLO 800: 28.1
WM451Lu: 72.0
COLO 792: 52.2
COLO 829: 78.6
C32: 79.3

Second drug: CN(c1ncccc1CNc1nc(Nc2ccc3c(c2)CC(=O)N3)ncc1C(F)(F)F)S(C)(=O)=O at 400 nM
WM3619: 58.9
COLO 800: 56.8
WM451Lu: 58.6
COLO 792: 56.3
COLO 829: 66.4
C32: 68.0

Second drug: CN(NC(=O)CC(=O)NN(C)C(=S)c1ccccc1)C(=S)c1ccccc1 at 30 nM
WM3619: 4.9
COLO 800: 37.0
WM451Lu: 54.2
COLO 792: 5.0
COLO 829: 23.2
C32: 27.2

Second drug: NC1(c2ccc(-c3nc4ccn5c(=O)[nH]nc5c4cc3-c3ccccc3)cc2)CCC1 at 2000 nM
WM3619: 75.9
COLO 800: 47.4
WM451Lu: 111
COLO 792: 43.5
COLO 829: 71.2
C32: 81.6

Second drug: COCC[n+]1c2c(n(Cc3cnccn3)c1C)C(=O)c1ccccc1C2=O at 2 nM
WM3619: 66.2
COLO 800: 31.4
WM451Lu: 54.1
COLO 792: 69.2
COLO 829: 79.7
C32: 99.0

Second drug: Nc1cccc2c1CN(C1CCC(=O)NC1=O)C2=O (centres undefined) at 5000 nM
WM3619: 79.1
COLO 800: 102
WM451Lu: 90.3
COLO 792: 74.4
COLO 829: 98.3
C32: 95.3

Second drug: CNC(=O)c1cc(Oc2ccc(NC(=O)Nc3ccc(Cl)c(C(F)(F)F)c3)cc2)ccn1 at 2000 nM
WM3619: 51.3
COLO 800: 89.4
WM451Lu: 80.0
COLO 792: 69.0
COLO 829: 53.8
C32: 82.2

Second drug: OCCn1cc(-c2cnc3nnn(Cc4ccc5ncccc5c4)c3n2)cn1 at 5000 nM
WM3619: 67.6
COLO 800: 69.6
WM451Lu: 84.9
COLO 792: 83.0
COLO 829: 98.1
C32: 95.2

Second drug: CC1(C)CCC(c2ccc(Cl)cc2)=C(CN2CCN(c3ccc(C(=O)NS(=O)(=O)c4ccc(N[C@H](CCN5CCOCC5)CSc5ccccc5)c(S(=O)(=O)C(F)(F)F)c4)cc3)CC2)C1 at 2000 nM
WM3619: 77.0
COLO 800: 22.0
WM451Lu: 76.3
COLO 792: 6.2
COLO 829: 44.4
C32: 62.3

Second drug: Nc1nc(F)nc2c1ncn2[C@@H]1O[C@H](CO)[C@@H](O)[C@@H]1O at 1000 nM
WM3619: 82.6
COLO 800: 73.8
WM451Lu: 87.1
COLO 792: 55.6
COLO 829: 79.6
C32: 89.8

Second drug: O=C(CCCCCCC(=O)Nc1ccccc1)NO at 400 nM
WM3619: 61.8
COLO 800: 74.6
WM451Lu: 87.3
COLO 792: 73.0
COLO 829: 87.3
C32: 87.0

Second drug: CS(=O)(=O)c1ccc(C(=O)Nc2ccc(Cl)c(-c3ccccn3)c2)c(Cl)c1 at 5000 nM
WM3619: 82.5
COLO 800: 68.2
WM451Lu: 97.8
COLO 792: 72.6
COLO 829: 70.8
C32: 115

Second drug: O=C(Oc1ccc([N+](=O)[O-])cc1)N1CCC(C(O)(c2ccc3c(c2)OCO3)c2ccc3c(c2)OCO3)CC1 at 5000 nM
WM3619: 78.3
COLO 800: 71.7
WM451Lu: 90.5
COLO 792: 79.6
COLO 829: 92.2
C32: 94.3

Second drug: O=C(Nc1ccccc1)c1cc([N+](=O)[O-])ccc1Cl at 10000 nM
WM3619: 52.6
COLO 800: 26.5
WM451Lu: 85.3
COLO 792: 72.8
COLO 829: 71.9
C32: 97.1

Second drug: Cc1ccc(NC(=O)c2cccc(N(C)C)c2)cc1NC(=O)c1ccc(O)cc1 at 10000 nM
COLO 800: 73.2
WM451Lu: 101
COLO 792: 79.5
COLO 829: 93.3
C32: 92.3

Second drug: C=C(c1ccc(C(=O)O)cc1)c1cc2c(cc1C)C(C)(C)CCC2(C)C at 10000 nM
WM3619: 76.5
COLO 800: 78.8
WM451Lu: 88.3
COLO 792: 76.3
COLO 829: 62.0
C32: 86.9

Second drug: C=CCn1c(=O)c2cnc(Nc3ccc(N4CCN(C)CC4)cc3)nc2n1-c1cccc(C(C)(C)O)n1 at 100 nM
WM3619: 45.8
COLO 800: 73.0
WM451Lu: 98.7
COLO 792: 68.5
COLO 829: 77.4
C32: 83.7

Second drug: Cn1c(Nc2ccc(C(F)(F)F)cc2)nc2cc(Oc3ccnc(-c4ncc(C(F)(F)F)[nH]4)c3)ccc21 at 400 nM
WM3619: 40.0
COLO 800: 73.3
WM451Lu: 47.4
COLO 792: 19.8
COLO 829: 47.3
C32: 58.2

3 of the entries, repeated:

- OCCn1cc(-c2cnc3nnn(Cc4ccc5ncccc5c4)c3n2)cn1 at 5000 nM : WM3619: 67.6; COLO 800: 69.6; WM451Lu: 84.9; COLO 792: 83.0; COLO 829: 98.1; C32: 95.2
- O=C(CCCCCCC(=O)Nc1ccccc1)NO at 400 nM : WM3619: 61.8; COLO 800: 74.6; WM451Lu: 87.3; COLO 792: 73.0; COLO 829: 87.3; C32: 87.0
- C[As](C)SC[C@H](NC(=O)CC[C@H](N)C(=O)O)C(=O)NCC(=O)O at 2000 nM : WM3619: 73.1; COLO 800: 63.4; WM451Lu: 94.8; COLO 792: 79.6; COLO 829: 88.4; C32: 103